# Assay results published in patent CN113583125A.
# The chains behind the UniProt entries cited, without tags or fusion partners. Where a name states a change or a piece, a line headed by the entry shows the natural chain unless it says otherwise.
# UniProt P01215: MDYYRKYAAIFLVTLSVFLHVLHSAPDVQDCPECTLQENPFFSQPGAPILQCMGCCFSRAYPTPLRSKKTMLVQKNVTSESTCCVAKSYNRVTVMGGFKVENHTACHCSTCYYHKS
# No constants are given. Whether binding was seen depends on the method and setting. Some binding calls cover weakened binding; strength is not graded here.
# Target: SEQ ID NO:1蛋白 (FSH、hCG、TSH、FSH-CTP和hLH共同α链) (Homo sapiens (Human)) (UniProt P01215)
# Experiment: Phage ELISA screen, VHH displayed on phage
row,Binder,binding
1,SEQ ID NO:13蛋白 (VHH-sgs-HHHHHH) (VHH) VHH: QVQVAESGGGLVQSGGSMNLSCTASGNLVSVDAMGWFRQAPGEEREAVAAIMWSGDSTYYANAVKGRFTISRDNAKNTVYLQMNSLKPEDTAVYYCAARLQEEGWWDYWGQGTQVTVSS,binds
2,SEQ ID NO:14蛋白 (VHH-sgs-HHHHHH) (VHH) VHH: QVQVAESGGGLVQSGGSMNLSCTASGRTFSSHAMGWFRQAPGEEREAVAAIMWSGDSTYYANAVKGRFTISRDNAKNTVYLQMNSLKPEDTAVYYCAARLQEEGWWDYWGQGTQVTVSS,binds
3,SEQ ID NO:15蛋白 (VHH-sgs-HHHHHH) (VHH) VHH: QVQVVESGGGLVQAGDSLRLSCAARTGSFSSYAMGWFRQAPGKEREAVAAITWSGGSTYYADSVKGRFTISRDNTKNTVYLQMNSLKPEDTAVYYCAARDRADWYSWWDYWGQGTQVTVSS,binds
